Data as given in PubChem BioAssay AID1259308 (NCATS, 2017).
Aim: 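Candidate targets for better recombinant protein yield in mammalian cells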 (primary screen). Cell system: human HEK293 embryonic kidney cells stably expressing firefly luciferase (HEK-CMV-Luc2-Hygro). Reagent: single siRNA against human genes, 0.8 pmol siRNA per well. Time to read-out: 72 h. Detection: 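Luciferase light (ONE-Glo) measured on one replicate plate set and viability (CellTiter-Glo) on the other, scaled to a negative control siRNA, with robust z-scores and luciferase per cell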. Scale: total luciferase, z-score and total luciferase, % of control: higher = more reporter protein produced. Rule for the call: 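Active when the median/MAD z-score for overall luciferase is greater than 3; a gene was taken forward for validation with new siRNAs if at least two of its three siRNAs passed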. Calls: active = raised luciferase; inactive = no rise.
This is one part, drawn at random, of about 59,000 reagents tested. About 1,510 of all reagents (2.6%) count as active. 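Calls use total luciferase alone and ignore viability, so some active siRNAs may act by altering cell number.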 The numbers tell different reagents against one gene apart. Not all columns of the deposit are shown.

What did the screen give for TDRD9 (tudor domain containing 9) #1?
total luciferase, z-score: 0.0405; total luciferase, % of control: 82.7; outcome: inactive

With TDRD9 (tudor domain containing 9) #2, what was measured?
total luciferase, z-score: -0.354; total luciferase, % of control: 74.8; outcome: inactive

With TDRD9 (tudor domain containing 9) #3, what does the deposit list?
total luciferase, z-score: -0.174; total luciferase, % of control: 78.4; outcome: inactive

With ASMTL (acetylserotonin O-methyltransferase like) #1, what does the deposit list?
total luciferase, z-score: -0.626; total luciferase, % of control: 69.4; outcome: inactive

With ASMTL (acetylserotonin O-methyltransferase like) #2, how do the results read?
total luciferase, z-score: -1.22; total luciferase, % of control: 57.7; outcome: inactive

What did the screen give for ASMTL (acetylserotonin O-methyltransferase like) #3?
total luciferase, z-score: -0.312; total luciferase, % of control: 75.7; outcome: inactive

Reformatted: 2 of the entries above.
| gene | reagent no. | total luciferase, z-score | total luciferase, % of control | outcome |
| --- | --- | --- | --- | --- |
| TDRD9 (tudor domain containing 9) | 1 | 0.0405 | 82.7 | inactive |
| TDRD9 (tudor domain containing 9) | 2 | -0.354 | 74.8 | inactive |

The listing continues:
How did the screen score IRF3 (interferon regulatory factor 3) #1?
total luciferase, z-score: -0.0727; total luciferase, % of control: 80.4; outcome: inactive

Which result is listed for IRF3 (interferon regulatory factor 3) #2?
total luciferase, z-score: 0.368; total luciferase, % of control: 89.2; outcome: inactive

With IRF3 (interferon regulatory factor 3) #3, what was measured?
total luciferase, z-score: -0.321; total luciferase, % of control: 75.5; outcome: inactive

For ASB8 (ankyrin repeat and SOCS box containing 8) #1, what was measured?
total luciferase, z-score: -0.589; total luciferase, % of control: 70.2; outcome: inactive

Which result is listed for ASB8 (ankyrin repeat and SOCS box containing 8) #2?
total luciferase, z-score: 1.62; total luciferase, % of control: 114; outcome: inactive

With ASB8 (ankyrin repeat and SOCS box containing 8) #3, how do the results read?
total luciferase, z-score: -0.79; total luciferase, % of control: 66.2; outcome: inactive
